The exact form of at least one protein or probe is not confirmed. Weaker means in comparison with the reference protein, sequence or condition of that experiment. At least one verdict was read from the data and is not stated in words by the source.
Biological target: DDX39B (UAP56) (Homo sapiens) (UniProt Q13838)
Assay: EMSA
Settings: 20 mM HEPES pH 7.0, 100 mM NaCl, 1 mM MgCl2, 6% glycerol, 1 mM ATPgS or AMPPNP, 0.5 mM TCEP, 30 ug/ml BSA, 0.5 U/ul SUPERase-In, room temperature, recombinant protein, residues 1-428, label: 5' Alexa Fluor 488

## UUUUUUUUUU [poly(U) 10-mer RNA]
1 mM AMPPNP, 1 mM Mg2+, 0.6 uM DDX39B, 40 nM RNA
  binding result: binds
1 mM ATPgS (printed ATP-S), 1 mM Mg2+, 0.6 uM DDX39B, 40 nM RNA
  binding result: binds
ATPgS or AMPPNP as indicated, + 0.6 uM TREX-2.1 (LENG8 549-800/PCID2/DSS1), which releases DDX39B from RNA
  binding result: binds more weakly
